PubChem BioAssay AID540276 (National Center for Advancing Translational Sciences (NCATS), 2011)
Out of some 300,000 compounds screened, about 5,400 (1.8%) were called active. Inconclusive results, whose numbers are uncertain, are shown with a selection of clear calls. Calls come from the whole dose curve; tested in HEK293 cells. Potencies of inconclusive entries are doubtful fits and often do not repeat.

Assay: qHTS for inhibitors of binding or entry into cells for Marburg Virus
Details: Marburg virus pseudotyped entry inhibition, cell reporter; series mostly up to 37.8 µM
Potency is the fitted concentration of half-maximal effect.

Row | SMILES | Potency
1 | Cc1ccc(CS(=O)(=O)c2nsc(C)c2C#N)cc1 | inconclusive: 6.31 µM [activator, full curve]
2 | C[n+]1c2n(c3ccccc31)N=C(c1ccc(Br)cc1)CS2 | inconclusive: 4.61 µM [inhibitor, full curve, poor fit]
3 | COc1ccc(C=NNC(=S)Nc2ccc(F)cc2)cc1OC | inconclusive: 8.91 µM [inhibitor, partial curve]
4 | CC(C)NC(=O)c1cc(-c2ccco2)nn1-c1ccc(Cl)cc1 | inactive
5 | COc1ccc(OC)c(CN(CCN2CCOCC2)C(=O)Nc2cccc(Cl)c2)c1 | inactive
6 | S=c1[nH]nc(COc2ccccc2)n1/N=C/c1cccc(Br)c1 | inconclusive: 3.98 µM [inhibitor, single point]
7 | COc1cc2c(cc1OC)C(c1ccccc1O)N(C1CC(=O)N(c3ccccc3)C1=O)CC2 (stereo not given) | inconclusive: 29.1 µM [activator, partial curve, poor fit]
8 | Cc1cccc(Oc2sc(C(=O)c3ccccc3)c(N)c2C#N)c1 | inconclusive: 8.91 µM [inhibitor, partial curve, poor fit]
9 | Cc1ccc2c(=O)cc(C(=O)Nc3ccc(S(=O)(=O)N4CCCCC4)cc3)oc2c1 | inconclusive: 2.82 µM [activator, single point]
10 | Cc1nnc(SCc2cc(=O)oc3ccc4ccccc4c23)n1Cc1ccccc1 | inconclusive: 35.5 µM [activator, single point]
11 | O=C(COC(=O)c1cc([N+](=O)[O-])ccc1N1CCOCC1)Nc1ccccc1OC(F)F | inactive
12 | CCN(CCn1cccn1)C(=O)CCc1nnc(C2(c3ccc(Cl)cc3)CCC2)o1 | inconclusive: 17.8 µM [activator, single point]
13 | CCOc1ccc(C(=O)Nc2nc(-c3ccc(Br)cc3)ns2)cc1 | inactive
14 | S=C(Nc1ccccn1)Nc1ccccc1Cl | inactive
15 | Cc1cc(OC(=O)c2c(Cl)cccc2Cl)nc(C)n1 | inconclusive: 32.6 µM [inhibitor, single point]
16 | Nc1c2c(nc3ccccc13)CCC[C@H]2O | inconclusive: 10.3 µM [inhibitor, partial curve, poor fit]
17 | COc1ccc(C2=CC(=O)CC(c3ccccc3)C2)cc1 (stereo not given) | inconclusive: 35.5 µM [inhibitor, single point]
18 | CCOC(=O)Nc1ccc2c(c1)C(=NO)c1ccccc1-2 | inactive
19 | CCN(CC)S(=O)(=O)c1cccc(C(=O)NCCc2ccccc2)c1 | inconclusive: 32.6 µM [inhibitor, single point]
20 | CCOC(=O)c1cc(-c2ccco2)nn1-c1ccc(C)cc1 | inactive

Random excerpt: 2 records from the list.
Row | SMILES | Potency
4 | CC(C)NC(=O)c1cc(-c2ccco2)nn1-c1ccc(Cl)cc1 | inactive
6 | S=c1[nH]nc(COc2ccccc2)n1/N=C/c1cccc(Br)c1 | inconclusive: 3.98 µM [inhibitor, single point]
